Reference: article PMC10827914 (Cellular and Molecular Life Sciences: CMLS, 2024)
Plain letter strings leave the end groups untold. Where no end group is shown, it is not given here.

Test: peptide made by a vendor (peptide synthesis; pre-loaded 2-chlorotrityl chloride resin (0.6 mmol/g); Oxyma/DIC)
Conditions: whole synthesis, RP-HPLC, scale of the general procedure 0.12 mmol

Row | Substance | final HPLC purity
1 | Ac-VGCARRYCSN (cysteine pairing not given here) | 95.5%

Same assay, conditions: whole synthesis, RP-HPLC, scale of the general procedure 0.12 mmol, one disulfide bridge, sequence written open

Row | Substance | final HPLC purity
2 | VGCARRYC | 93.8%
3 | VGCARRYCSGGSGGGSGK-bio | 95.7%
4 | VGCGRRYCSN | 95.3%
5 | VGCARRYCSN | 96.3%
6 | VGCARRYCS | 99.4%
7 | GCARRYCSN | 93.8%
8 | GCRSNCYRVG | 98.1%
9 | GCARRYCS | 93.1%

Test: general procedure: Fmoc solid-phase peptide synthesis; pre-loaded 2-chlorotrityl chloride resin (0.6 mmol/g); Oxyma/DIC
Conditions: whole synthesis, RP-HPLC, scale of the general procedure 0.12 mmol

Row | Substance | final HPLC purity
10 | VAHQLQALRRG (CgA429-439) | 95.9%
11 | VGAGRRYASN | 96.1%

Same assay, conditions: whole synthesis, RP-HPLC, scale of the general procedure 0.12 mmol, one disulfide bridge, sequence written open

Row | Substance | final HPLC purity
12 | VGCGRRYCAN | 95.9%
13 | VGCGARYCSN | 96.4%
14 | CSGIGSGGC | 94.1%
15 | VGCGRRACSN | 95.1%
16 | VGCARRYCSN | 93.1%
17 | VGCGRAYCSN | 95.4%
18 | VACGRRYCSN | 95.2%
19 | VGCARRYCS | 91.9%
20 | AGCGRRYCSN | 96.0%
